Source: PubChem BioAssay AID1259259 (Sanger Institute, 2017)
In all, the deposit lists 794 reagents; shown is a random part of them. Of all reagents, 9 (1.1%) were called active. 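Calls rest on knock-down alone, not drug synergy; viability values seem capped at 1.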 A number with no mark means an inactive call. Not stated in the record: the amount of reagent, the time to read-out.

Assay: 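Kinome siRNA search for kinases essential alone or combined with trametinib, cetuximab or BYL719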 (primary screen)
Cell system: SW1463 human colorectal cancer cells
Knock-down reagent: siRNA pool against human genes
Treatment: DMSO vehicle, or one anchor drug: BYL719 at 1 µM, cetuximab at 5 µg/ml, or trametinib at 10 nM
Measurement: 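Viability as fraction of control pool 2 (non-targeting), replicate mean; knock-down robust z-score without any drug; synergy score averaged for each anchor drug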
Direction: robust z-score, knock-down alone: higher = more viable cells after knock-down; viability, knock-down alone: higher = more viable cells; synergy score with BYL719 and synergy score with cetuximab and synergy score with trametinib: higher = stronger synergy (synthetic lethal) with drug
Call rule: 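Knock-down called essential when its robust z-score without drug falls below -3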
Calls: active = essential: viability loss from knock-down alone; inactive = no change from knock-down alone

gene knocked down	robust z-score, knock-down alone	viability, knock-down alone (fraction of control)	synergy score with BYL719	synergy score with cetuximab	synergy score with trametinib
MYO3A (myosin IIIA)	0.638	0.969	0.137	0.0593	0.215
ULK4 (unc-51 like kinase 4)	-1.12	0.856	0.007	0.108	-0.00256
PFKFB3 (6-phosphofructo-2-kinase/fructose-2,6-biphosphatase 3)	0.498	0.96	0.0557	0.017	0.188
PRKAR1A	1.06	0.996	-0.00416	0.00223	0.159
EIF2AK3 (eukaryotic translation initiation factor 2 alpha kinase 3)	0.392	0.953	0.0997	0.132	-0.0648
NEK5 (NIMA related kinase 5)	-0.607	0.889	-0.033	0.0213	-0.0372
MAP2K4 (mitogen-activated protein kinase kinase 4)	1.13	1	0	0.271	0.208
TYRO3 (TYRO3 protein tyrosine kinase)	-1.55	0.828	-0.0815	0.0305	0.0303
GNAS (GNAS complex locus)	-2.15	0.789	-0.0692	0.162	-0.0483
MAPK8 (mitogen-activated protein kinase 8)	0.589	0.965	0.0176	0.0566	-0.066
DGKG (diacylglycerol kinase gamma)	1.13	1	0.00886	0.0617	-0.0326
CIT (citron rho-interacting serine/threonine kinase)	-1.1	0.857	0.122	0.254	0.0568
CHEK1 (checkpoint kinase 1)	-4.11 (active)	0.664	-0.0396	0.00588	-0.0966
CILK1 (ciliogenesis associated kinase 1)	-0.188	0.916	-0.00361	-0.0535	0.0123
ITPKA (inositol-trisphosphate 3-kinase A)	1.13	1	0	-0.0236	0.096
COASY (Coenzyme A synthase)	-4.25 (active)	0.655	-0.015	0.0114	0.00142
IKBKB (inhibitor of nuclear factor kappa B kinase subunit beta)	-0.111	0.921	0.0069	-0.0199	0.0125
STK24 (serine/threonine kinase 24)	-0.805	0.876	-0.0284	0.148	0.0872
SRP72 (signal recognition particle 72)	-0.416	0.901	-0.0325	-0.124	-0.0588
PRKAG3 (protein kinase AMP-activated non-catalytic subunit gamma 3)	-2.33	0.778	0.0784	0.216	-0.0128

As entered above:
For “robust z-score, knock-down alone”, GNAS (GNAS complex locus) has -2.15
For “robust z-score, knock-down alone”, NEK5 (NIMA related kinase 5) is entered as -0.607
ITPKA (inositol-trisphosphate 3-kinase A), synergy score with trametinib: 0.096
For “synergy score with BYL719”, MAPK8 (mitogen-activated protein kinase 8) reads 0.0176

Additional records follow.
gene knocked down	robust z-score, knock-down alone	viability, knock-down alone (fraction of control)	synergy score with BYL719	synergy score with cetuximab	synergy score with trametinib
THNSL1 (threonine synthase like 1)	1.13	1	0	0.000383	-0.0326
HIPK2 (homeodomain interacting protein kinase 2)	1.13	1	0	0.0915	0.0877
MAP3K4 (mitogen-activated protein kinase kinase kinase 4)	0.502	0.96	0.0404	0.033	-0.0327
NME6 (NME/NM23 nucleoside diphosphate kinase 6)	-1.44	0.835	-0.0126	0.00787	0.00348
EXOSC10 (exosome component 10)	-1.03	0.861	-0.125	0.163	-0.163
CAMK4 (calcium/calmodulin dependent protein kinase IV)	0.823	0.981	-0.0195	0.07	-0.0515
FGFRL1 (fibroblast growth factor receptor like 1)	0.416	0.954	0.149	0.101	0.0985
FRK (fyn related Src family tyrosine kinase)	0.845	0.982	-0.0181	-0.0448	0.0639
IPPK (inositol-pentakisphosphate 2-kinase)	0.457	0.957	0.0347	0.127	0.137
CDK14 (cyclin dependent kinase 14)	-1.03	0.861	-0.139	-0.162	-0.167
MET (MET proto-oncogene, receptor tyrosine kinase)	-1.55	0.828	-0.154	0.00739	-0.0973
KHK (ketohexokinase)	1.13	1	0	0.138	-0.0326
MAPK12 (mitogen-activated protein kinase 12)	1.13	1	0.0506	0.0196	-0.0326
PRP4K (pre-mRNA processing factor kinase PRP4K)	-2.37	0.775	-0.121	0.145	0.0859
